Data source: PubChem BioAssay AID1259424 (University of Nebraska Medical Center, 2018)

- Test: 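Seek colon cancer survival genes behaving like KSR1, using a six-gene signature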 (primary screen)
- System: human HCT116 colon cancer cells
- Reagent: siRNA pool against human genes, 50 nM
- Detection: 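Log2 levels of six mRNAs (branched-DNA multiplex), adjusted by two reference genes and the non-targeting median, then scored against the average KSR1 knockdown pattern as Pearson r and euclidean distance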
- Scale: mean correlation with KSR1 profile and KSR1 correlation: higher = expression change more like KSR1 knockdown; mean distance from KSR1 profile: higher = expression change less like KSR1 knockdown
Shown is an unselected part of about 14,000 reagents tested. 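Higher correlation or smaller distance means closer resemblance to KSR1 loss; control wells, including KSR1 knockdowns, recur on many plates.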 Reagent sequences are not shown. The record does not give: the time to read-out.

| target | mean correlation with KSR1 profile | mean distance from KSR1 profile | KSR1 correlation, replicate 1 | KSR1 correlation, replicate 2 | KSR1 correlation, replicate 3 |
| --- | --- | --- | --- | --- | --- |
| TSPYL4 (GeneID 23270) | -0.101 | 1.32 | -0.116 | -0.406 | 0.202 |
| MMP16 (GeneID 4325) | -0.75 | 1.58 | -0.731 | -0.667 | -0.654 |
| AHCY (GeneID 191) | -0.0994 | 2.86 | -0.14 | -0.23 | -0.0633 |
| FUT8 (GeneID 2530) | 0.0947 | 1.6 | -0.0535 | 0.639 | -0.175 |
| SDCBP2 (GeneID 27111) | 0.0925 | 1.67 | 0.0895 | -0.269 | -0.185 |
| FFAR3 (GeneID 2865) | 0.489 | 1.65 | 0.51 | 0.561 | 0.289 |
| IL31RA (GeneID 133396) | -0.337 | 1.77 | 0.149 | -0.347 | -0.531 |
| MAK16 (GeneID 84549) | 0.684 | 1.3 | 0.56 | 0.561 | 0.622 |
| CRKL (GeneID 1399) | -0.0877 | 3.3 | -0.179 | -0.0407 | -0.0766 |
| ABCC2 (GeneID 1244) | -0.0678 | 2.03 | 0.101 | -0.198 | -0.142 |
| SPPL2A (GeneID 84888) | 0.529 | 1.71 | 0.274 | 0.379 | 0.712 |
| NIPSNAP1 (GeneID 8508) | -0.137 | 2.11 | 0.00796 | -0.266 | -0.256 |
| DYNC1I1 (GeneID 1780) | 0.601 | 1.23 | 0.634 | 0.628 | 0.331 |
| CCDC69 (GeneID 26112) | -0.429 | 2.83 | -0.207 | -0.62 | -0.443 |
| DNAJA4 (GeneID 55466) | -0.386 | 1.82 | -0.212 | -0.433 | -0.526 |
| DUSP10 (GeneID 11221) | -0.322 | 1.67 | -0.284 | -0.803 | -0.607 |
| CPM (GeneID 1368) | -0.59 | 4.34 | -0.543 | -0.582 | -0.703 |
| NEK11 (GeneID 79858) | -0.342 | 3.18 | -0.146 | -0.399 | -0.326 |
| ZNF16 (GeneID 7564) | -0.276 | 2.92 | -0.0153 | -0.501 | -0.201 |
| SFTPB (GeneID 6439) | -0.21 | 2.54 | -0.217 | -0.171 | -0.00739 |
| UBXN1 (GeneID 51035) | 0.402 | 1.22 | 0.351 | 0.552 | 0.419 |
| NHLH2 (GeneID 4808) | -0.523 | 1.78 | -0.338 | -0.397 | -0.413 |
| MRGPRX2 (GeneID 117194) | 0.415 | 1.8 | 0.43 | 0.543 | 0.473 |
| RWDD2B (GeneID 10069) | -0.291 | 1.71 | -0.217 | -0.484 | -0.158 |
| UBE2L3 (GeneID 7332) | -0.00229 | 2.63 | -0.0588 | 0.0184 | -0.12 |
| TAF1B (GeneID 9014) | 0.127 | 1.98 | 0.402 | 0.537 | -0.236 |
| LAMA2 (GeneID 3908) | 0.171 | 2.56 | 0.186 | -0.12 | 0.119 |
| MYB (GeneID 4602) | -0.107 | 2.36 | -0.0893 | 0.315 | -0.0118 |
| ATXN2 (GeneID 6311) | 0.205 | 2.31 | 0.214 | 0.134 | 0.3 |
| NRXN3 (GeneID 9369) | -0.5 | 0.835 | -0.25 | 0.278 | -0.567 |
| CMTM7 (GeneID 112616) | 0.231 | 1.86 | 0.696 | -0.131 | 0.188 |
| ALDH1A2 (GeneID 8854) | -0.507 | 2.66 | -0.626 | -0.409 | -0.282 |
| MTUS1 (GeneID 57509) | -0.202 | 2.85 | -0.375 | -0.303 | -0.124 |
| LILRB5 (GeneID 10990) | 0.504 | 1.03 | 0.219 | 0.401 | 0.635 |

Taken from above:
Entry for ZNF16 (GeneID 7564) in “KSR1 correlation, replicate 3”: -0.201
Under “KSR1 correlation, replicate 3”, ABCC2 (GeneID 1244) is entered as -0.142
Value for CRKL (GeneID 1399) in “mean distance from KSR1 profile”: 3.3
Entry for TSPYL4 (GeneID 23270) in “mean correlation with KSR1 profile”: -0.101
UBXN1 (GeneID 51035), KSR1 correlation, replicate 1: 0.351
